The source of these data is publication PMC4947123.

By UniProt entry, the sequences of proteins in these tests, tags left out. Where a name states a change or a piece, a line headed by the entry shows the natural chain unless it says otherwise.
UniProt Q96CV9: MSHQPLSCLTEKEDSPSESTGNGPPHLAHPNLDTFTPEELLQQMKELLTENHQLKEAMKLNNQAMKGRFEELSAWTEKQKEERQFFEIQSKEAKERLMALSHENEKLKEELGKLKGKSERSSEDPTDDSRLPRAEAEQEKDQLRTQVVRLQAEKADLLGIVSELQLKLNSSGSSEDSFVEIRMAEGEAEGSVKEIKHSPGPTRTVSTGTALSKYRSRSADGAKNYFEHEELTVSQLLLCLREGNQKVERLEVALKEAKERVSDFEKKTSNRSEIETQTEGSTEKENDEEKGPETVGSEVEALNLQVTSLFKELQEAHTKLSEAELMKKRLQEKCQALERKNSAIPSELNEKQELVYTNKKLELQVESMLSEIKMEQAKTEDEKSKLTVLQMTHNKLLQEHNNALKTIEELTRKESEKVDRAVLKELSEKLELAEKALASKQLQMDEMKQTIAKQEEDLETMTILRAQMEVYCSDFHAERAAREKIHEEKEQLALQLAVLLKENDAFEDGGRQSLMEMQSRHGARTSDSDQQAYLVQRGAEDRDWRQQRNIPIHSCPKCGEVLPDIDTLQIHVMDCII
UniProt P35637: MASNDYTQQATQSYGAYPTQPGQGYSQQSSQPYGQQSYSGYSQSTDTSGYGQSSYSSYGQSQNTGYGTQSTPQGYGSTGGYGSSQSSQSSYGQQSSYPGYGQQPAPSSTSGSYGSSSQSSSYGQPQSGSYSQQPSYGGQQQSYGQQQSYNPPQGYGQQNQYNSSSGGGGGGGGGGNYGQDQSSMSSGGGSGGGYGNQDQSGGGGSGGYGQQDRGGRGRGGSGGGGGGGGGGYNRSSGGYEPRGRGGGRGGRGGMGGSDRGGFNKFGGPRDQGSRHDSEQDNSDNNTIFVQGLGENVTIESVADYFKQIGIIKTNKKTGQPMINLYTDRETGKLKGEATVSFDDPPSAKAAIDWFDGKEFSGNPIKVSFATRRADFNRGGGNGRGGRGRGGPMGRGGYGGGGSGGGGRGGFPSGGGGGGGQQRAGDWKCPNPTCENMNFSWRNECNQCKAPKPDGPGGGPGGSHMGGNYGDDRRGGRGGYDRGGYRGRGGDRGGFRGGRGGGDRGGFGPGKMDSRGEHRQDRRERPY
UniProt Q9UHD9: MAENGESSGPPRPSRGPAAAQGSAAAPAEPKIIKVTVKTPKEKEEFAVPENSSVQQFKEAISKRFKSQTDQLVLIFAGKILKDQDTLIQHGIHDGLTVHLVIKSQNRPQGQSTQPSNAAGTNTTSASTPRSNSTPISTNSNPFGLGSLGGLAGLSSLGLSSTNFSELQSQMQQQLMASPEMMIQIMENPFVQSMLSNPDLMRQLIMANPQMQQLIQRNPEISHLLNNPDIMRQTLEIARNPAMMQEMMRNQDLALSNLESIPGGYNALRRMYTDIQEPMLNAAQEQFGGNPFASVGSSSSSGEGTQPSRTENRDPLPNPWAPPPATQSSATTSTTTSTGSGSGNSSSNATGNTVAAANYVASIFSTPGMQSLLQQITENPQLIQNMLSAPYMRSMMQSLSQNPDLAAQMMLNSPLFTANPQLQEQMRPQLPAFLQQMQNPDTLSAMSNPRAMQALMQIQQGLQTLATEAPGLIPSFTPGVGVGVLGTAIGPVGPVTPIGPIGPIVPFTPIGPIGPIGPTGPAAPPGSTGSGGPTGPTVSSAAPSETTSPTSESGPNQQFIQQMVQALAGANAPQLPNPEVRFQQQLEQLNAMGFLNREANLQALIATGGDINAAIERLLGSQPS
UniProt Q96LT7: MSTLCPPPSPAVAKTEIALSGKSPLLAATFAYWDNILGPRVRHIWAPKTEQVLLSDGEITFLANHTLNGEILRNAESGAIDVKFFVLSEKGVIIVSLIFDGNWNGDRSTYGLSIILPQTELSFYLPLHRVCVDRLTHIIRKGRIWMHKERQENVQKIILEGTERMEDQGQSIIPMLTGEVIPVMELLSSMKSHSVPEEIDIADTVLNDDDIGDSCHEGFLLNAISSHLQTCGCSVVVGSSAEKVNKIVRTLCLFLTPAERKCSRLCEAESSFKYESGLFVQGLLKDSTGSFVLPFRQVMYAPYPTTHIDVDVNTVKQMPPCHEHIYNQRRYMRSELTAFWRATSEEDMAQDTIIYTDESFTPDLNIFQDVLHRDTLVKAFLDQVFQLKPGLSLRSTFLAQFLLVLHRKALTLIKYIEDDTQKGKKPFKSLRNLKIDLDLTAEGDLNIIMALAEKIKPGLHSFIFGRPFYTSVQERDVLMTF
UniProt Q60737: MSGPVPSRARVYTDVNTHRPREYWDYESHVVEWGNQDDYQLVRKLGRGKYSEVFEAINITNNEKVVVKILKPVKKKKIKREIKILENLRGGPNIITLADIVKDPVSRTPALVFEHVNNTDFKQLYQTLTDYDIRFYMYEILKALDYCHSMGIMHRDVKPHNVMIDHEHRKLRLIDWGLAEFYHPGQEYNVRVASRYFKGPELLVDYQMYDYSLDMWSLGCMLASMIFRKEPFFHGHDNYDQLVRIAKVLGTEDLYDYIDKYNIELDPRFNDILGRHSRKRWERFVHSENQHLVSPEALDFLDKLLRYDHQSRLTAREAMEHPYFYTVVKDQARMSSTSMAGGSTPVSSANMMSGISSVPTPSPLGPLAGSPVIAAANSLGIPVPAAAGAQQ
UniProt O54833: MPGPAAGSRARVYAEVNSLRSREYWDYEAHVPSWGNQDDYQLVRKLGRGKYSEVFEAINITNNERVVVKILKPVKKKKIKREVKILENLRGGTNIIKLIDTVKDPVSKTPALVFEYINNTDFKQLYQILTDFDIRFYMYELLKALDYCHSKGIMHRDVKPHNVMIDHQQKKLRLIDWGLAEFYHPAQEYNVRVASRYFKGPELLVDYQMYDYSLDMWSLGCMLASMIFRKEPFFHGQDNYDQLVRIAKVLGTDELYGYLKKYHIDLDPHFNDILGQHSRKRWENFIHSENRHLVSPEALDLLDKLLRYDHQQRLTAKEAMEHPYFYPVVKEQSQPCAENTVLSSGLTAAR
UniProt Q61701: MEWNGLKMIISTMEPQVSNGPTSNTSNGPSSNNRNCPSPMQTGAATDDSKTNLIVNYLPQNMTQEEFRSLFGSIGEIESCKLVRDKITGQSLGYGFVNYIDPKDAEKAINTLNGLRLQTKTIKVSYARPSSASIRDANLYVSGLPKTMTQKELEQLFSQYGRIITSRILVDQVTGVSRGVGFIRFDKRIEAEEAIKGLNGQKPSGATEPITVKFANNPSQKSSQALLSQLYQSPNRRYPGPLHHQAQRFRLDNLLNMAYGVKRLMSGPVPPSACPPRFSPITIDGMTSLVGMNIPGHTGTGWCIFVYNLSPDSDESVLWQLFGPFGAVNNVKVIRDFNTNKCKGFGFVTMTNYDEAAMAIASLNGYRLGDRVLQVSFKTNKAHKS
UniProt Q8K310: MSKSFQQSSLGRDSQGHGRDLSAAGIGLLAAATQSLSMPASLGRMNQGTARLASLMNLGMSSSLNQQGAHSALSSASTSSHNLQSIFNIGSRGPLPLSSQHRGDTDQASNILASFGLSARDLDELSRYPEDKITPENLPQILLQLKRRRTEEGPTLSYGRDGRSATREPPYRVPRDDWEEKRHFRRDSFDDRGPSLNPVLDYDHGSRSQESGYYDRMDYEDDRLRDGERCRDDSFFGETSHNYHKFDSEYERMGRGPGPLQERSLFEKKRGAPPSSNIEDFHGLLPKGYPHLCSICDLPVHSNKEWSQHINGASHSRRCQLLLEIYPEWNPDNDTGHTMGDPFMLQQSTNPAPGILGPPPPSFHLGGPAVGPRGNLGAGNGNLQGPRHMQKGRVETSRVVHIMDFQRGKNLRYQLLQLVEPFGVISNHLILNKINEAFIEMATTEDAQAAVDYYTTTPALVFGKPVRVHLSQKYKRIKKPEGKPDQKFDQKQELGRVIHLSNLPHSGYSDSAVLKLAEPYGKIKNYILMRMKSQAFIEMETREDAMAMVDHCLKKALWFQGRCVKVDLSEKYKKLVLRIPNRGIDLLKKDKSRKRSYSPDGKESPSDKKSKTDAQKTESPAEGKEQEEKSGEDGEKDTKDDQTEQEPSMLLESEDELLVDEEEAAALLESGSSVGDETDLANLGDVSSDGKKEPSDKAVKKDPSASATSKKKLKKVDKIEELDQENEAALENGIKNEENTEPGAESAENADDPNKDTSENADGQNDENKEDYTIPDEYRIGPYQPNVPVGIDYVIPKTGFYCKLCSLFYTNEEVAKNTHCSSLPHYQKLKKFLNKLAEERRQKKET
UniProt Q6PHQ9: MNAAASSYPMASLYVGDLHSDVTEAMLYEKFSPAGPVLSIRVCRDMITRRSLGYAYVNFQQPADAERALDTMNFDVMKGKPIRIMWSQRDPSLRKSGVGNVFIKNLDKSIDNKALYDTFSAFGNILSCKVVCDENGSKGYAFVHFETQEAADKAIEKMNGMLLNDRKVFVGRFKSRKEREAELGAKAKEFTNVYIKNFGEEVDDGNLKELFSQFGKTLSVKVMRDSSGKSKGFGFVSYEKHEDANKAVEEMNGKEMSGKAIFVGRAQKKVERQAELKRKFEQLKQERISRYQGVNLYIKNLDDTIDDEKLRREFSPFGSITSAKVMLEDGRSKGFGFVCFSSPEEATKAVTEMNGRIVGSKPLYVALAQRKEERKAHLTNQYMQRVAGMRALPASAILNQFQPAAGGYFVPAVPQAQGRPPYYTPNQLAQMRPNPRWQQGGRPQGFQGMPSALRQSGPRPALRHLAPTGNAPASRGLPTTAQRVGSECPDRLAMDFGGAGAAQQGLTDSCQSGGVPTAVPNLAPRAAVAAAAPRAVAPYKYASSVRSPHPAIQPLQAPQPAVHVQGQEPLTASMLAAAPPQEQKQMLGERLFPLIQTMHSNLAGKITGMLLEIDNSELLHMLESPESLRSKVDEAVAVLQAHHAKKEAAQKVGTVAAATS
UniProt P62821: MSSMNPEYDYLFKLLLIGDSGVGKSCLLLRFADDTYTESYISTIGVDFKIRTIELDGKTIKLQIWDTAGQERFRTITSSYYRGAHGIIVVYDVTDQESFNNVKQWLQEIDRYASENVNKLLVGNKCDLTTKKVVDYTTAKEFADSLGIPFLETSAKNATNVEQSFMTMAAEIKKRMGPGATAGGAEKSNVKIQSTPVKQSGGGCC
UniProt Q9EPU0: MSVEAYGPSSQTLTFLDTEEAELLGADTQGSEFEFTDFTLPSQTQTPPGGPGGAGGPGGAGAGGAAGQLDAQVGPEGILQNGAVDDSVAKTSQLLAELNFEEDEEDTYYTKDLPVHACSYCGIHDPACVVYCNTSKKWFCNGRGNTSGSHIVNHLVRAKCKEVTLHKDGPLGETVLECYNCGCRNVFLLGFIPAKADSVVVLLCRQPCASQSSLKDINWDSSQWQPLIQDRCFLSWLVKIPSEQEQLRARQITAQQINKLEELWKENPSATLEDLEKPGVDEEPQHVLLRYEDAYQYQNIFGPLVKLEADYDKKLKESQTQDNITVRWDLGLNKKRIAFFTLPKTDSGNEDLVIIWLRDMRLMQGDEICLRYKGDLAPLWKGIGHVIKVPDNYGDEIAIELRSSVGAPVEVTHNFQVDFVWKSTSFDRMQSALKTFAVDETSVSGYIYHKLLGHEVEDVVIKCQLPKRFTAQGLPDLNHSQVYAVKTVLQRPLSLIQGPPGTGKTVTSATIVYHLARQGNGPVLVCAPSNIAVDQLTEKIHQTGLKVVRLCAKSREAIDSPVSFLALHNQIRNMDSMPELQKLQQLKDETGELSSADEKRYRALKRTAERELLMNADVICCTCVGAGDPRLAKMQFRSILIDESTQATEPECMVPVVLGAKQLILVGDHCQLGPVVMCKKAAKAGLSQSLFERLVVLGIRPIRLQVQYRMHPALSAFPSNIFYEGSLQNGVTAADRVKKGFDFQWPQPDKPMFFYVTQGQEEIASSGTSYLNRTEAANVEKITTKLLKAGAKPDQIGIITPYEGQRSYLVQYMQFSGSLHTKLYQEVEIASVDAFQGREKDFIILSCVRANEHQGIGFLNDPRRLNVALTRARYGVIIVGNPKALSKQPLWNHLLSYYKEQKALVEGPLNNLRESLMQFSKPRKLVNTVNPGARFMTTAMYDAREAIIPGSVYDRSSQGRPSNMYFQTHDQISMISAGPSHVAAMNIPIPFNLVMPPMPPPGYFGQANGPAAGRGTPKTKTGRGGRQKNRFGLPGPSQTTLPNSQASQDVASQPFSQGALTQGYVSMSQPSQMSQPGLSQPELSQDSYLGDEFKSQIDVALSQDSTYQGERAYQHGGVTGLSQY
UniProt O88569: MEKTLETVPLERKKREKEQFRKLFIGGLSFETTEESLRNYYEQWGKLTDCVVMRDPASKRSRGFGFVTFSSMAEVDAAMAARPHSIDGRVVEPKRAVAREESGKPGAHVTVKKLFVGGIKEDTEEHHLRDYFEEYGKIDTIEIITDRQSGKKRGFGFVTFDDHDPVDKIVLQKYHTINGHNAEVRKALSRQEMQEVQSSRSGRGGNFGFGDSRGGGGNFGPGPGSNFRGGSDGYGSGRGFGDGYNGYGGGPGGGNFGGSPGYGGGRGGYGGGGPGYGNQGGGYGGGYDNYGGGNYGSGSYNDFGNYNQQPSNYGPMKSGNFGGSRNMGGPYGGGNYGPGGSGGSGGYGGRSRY

These are yes or no findings as the source states them, for the method shown. Binding seen in cells or lysates may run through a third protein. A yes stands for co-enrichment or nearness to the bait. Other partners may have been found. For part of these data: A no says only that the protein was not detected with the bait.

Common to all, as to assay: affinity purification with mass spectrometry; bioGFP-tagged bait co-transfected with BirA in N2A cells; captured from lysate with magnetic streptavidin beads; gel, LC-MS/MS, MaxQuant, PERSEUS, Welch's t test with FDR 0.01 and S0 1.5, triplicate, against GFP or wild type
Experiment [1] deals with bioGFP-tagged OPTN wild-type (UniProt Q96CV9).
In the next experiment the target is bioGFP-tagged OPTN E478G (UniProt Q96CV9).
Experiment [2] concerns the target bioGFP-tagged FUS R521C (human) (UniProt P35637).
The target in experiment [3] is bioGFP-tagged FUS wild-type (human) (UniProt P35637).
Experiment [4] concerns the target bioGFP-tagged TDP-43 wild-type (UniProt Q13148).
In experiment [5] the target is bioGFP-tagged TDP-43 M337V (UniProt Q13148).
Experiment [6] has as its target bioGFP-tagged UBQLN2 wild-type (UniProt Q9UHD9).
For another experiment, the target named is bioGFP-tagged C9orf72 (UniProt Q96LT7).

Turning to “Casein kinase II subunit alpha (Csnk2a1) (from UniProt Q60737 1-391)”, the results for the binding entry (in experiment [1]; with bioGFP-tagged OPTN E478G) were “binds” and “no binding”, respectively.
Taken in the same sequence, the figures for “Casein kinase II subunit alpha (Csnk2a2) (from UniProt O54833 1-350)” were “binds” and “no binding”.
For “DNA repair protein XRCC1 (Xrcc1) (from UniProt Q60596 1-631)”, the binding entry in experiment [2] and in experiment [3] was “binds” each time.
Dhx9 (from UniProt O70133 1-1380): the binding result in experiment [4], in experiment [5], in experiment [2] and in experiment [3] was “binds” each time.
As for “E3 ubiquitin-protein ligase Itchy (Itch) (from UniProt Q8C863 1-864)”, the binding result in experiment [6] is “binds”.
Regarding “Histone H2AX (H2afx) (from UniProt P27661 1-143)”, the binding result in experiment [2] and in experiment [3] was “binds” in each case.
As for “HuD (Elavl4) (from UniProt Q61701 1-385)”, the binding result in experiment [4], in experiment [5], in experiment [2] and in experiment [3] was “binds” in each case.
As to Matrin3 (from UniProt Q8K310 1-846), the binding entry in experiment [4], in experiment [5], in experiment [2] and in experiment [3] was “binds” throughout.
As to “Mitochondrial import inner membrane translocase subunit TIM50 (Timm50) (from UniProt Q9D880 22-353)”, in the experiment with bioGFP-tagged C9orf72, the binding entry is recorded as “binds”.
“Optn, endogenous (from UniProt Q8K3K8 1-584)”: the binding entry in experiment [6] is “binds”.
Take Pabpc4 (from UniProt Q6PHQ9 1-660): the binding entry in experiment [4], in experiment [5], in experiment [2] and in experiment [3] was “binds” each time.
With Parp1 (from UniProt P11103 1-1013), the binding entry in experiment [2] and in experiment [3] was “binds” each time.
On to “Poly (ADP-ribose) polymerase 2 (Parp2) (from UniProt O88554 1-559)”, for which the binding entry in experiment [2] and in experiment [3] was “binds” each time.
Consider “Pre-mRNA-splicing factor ATP-dependent RNA helicase DHX15 (Dhx15) (from UniProt O35286 1-795)”, for which the binding entry was “binds” in experiment [1] and “no binding” in the experiment with bioGFP-tagged OPTN E478G.
With “Ras-related protein Rab-1A (Rab1a) (from UniProt P62821 1-205)”, the binding result in experiment [6] was “binds”.
“TNFAIP3-interacting protein 1 (Tnip1) (from UniProt Q9WUU8 1-647)”: in experiment [1], the binding entry was “binds”.
For Upf1 (from UniProt Q9EPU0 1-1124), the binding entry in experiment [4], in experiment [5], in experiment [2] and in experiment [3] was “binds” throughout.
On to “X-ray repair cross-complementing protein 5 (Xrcc5) (from UniProt P27641 1-732)”, for which the binding entry in experiment [2] and in experiment [3] was “binds” each time.
“X-ray repair cross-complementing protein 6 (Xrcc6) (from UniProt P23475 1-608)”: the binding entry in experiment [2] and in experiment [3] was “binds” each time.
Consider “cAMP-dependent protein kinase type I-alpha regulatory subunit (Prkar1a) (from UniProt Q9DBC7 1-381)”, for which the values for the binding entry (in experiment [1]; with bioGFP-tagged OPTN E478G) were “binds” and “no binding”, respectively.
In the case of hnRNPA2B1 (from UniProt O88569 1-353), the binding entry is given as “no binding” with bioGFP-tagged C9orf72, “binds” in experiment [2] and “binds” in experiment [3].
For hnRNPK (from UniProt P61979 1-463), the binding result in experiment [4] and in experiment [5] was “binds” each time.
“ubiquilin 1 (Ubqln1) (from UniProt Q8R317 1-582)”: in the experiment with bioGFP-tagged C9orf72, the binding result is listed as “no binding”.
As for “valosin-containing protein (Vcp) (from UniProt Q01853 1-806)”, the binding result in experiment [6] is reported as “binds”; in experiment [1], “binds”; in the experiment with bioGFP-tagged OPTN E478G it was “no binding”.
